Binding data for seven molecules are collected here from publication PMC6997364.

The chains behind the UniProt entries cited, without tags or fusion partners. Residues count along the entry.
UniProt P15703, residues 24-313: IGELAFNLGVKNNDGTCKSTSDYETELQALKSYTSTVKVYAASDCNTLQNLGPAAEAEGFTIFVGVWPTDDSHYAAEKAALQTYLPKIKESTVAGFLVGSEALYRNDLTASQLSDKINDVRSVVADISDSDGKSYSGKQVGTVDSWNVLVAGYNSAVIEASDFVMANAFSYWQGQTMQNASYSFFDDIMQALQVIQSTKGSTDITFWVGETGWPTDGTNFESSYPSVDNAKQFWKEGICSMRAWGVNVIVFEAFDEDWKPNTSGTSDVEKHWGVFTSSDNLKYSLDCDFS

Assay [1] has as its target T1, Gvp36 fused at its C-terminus with the VN or VC part of Venus YFP (S. cerevisiae) (UniProt P40531).
T1 sequence: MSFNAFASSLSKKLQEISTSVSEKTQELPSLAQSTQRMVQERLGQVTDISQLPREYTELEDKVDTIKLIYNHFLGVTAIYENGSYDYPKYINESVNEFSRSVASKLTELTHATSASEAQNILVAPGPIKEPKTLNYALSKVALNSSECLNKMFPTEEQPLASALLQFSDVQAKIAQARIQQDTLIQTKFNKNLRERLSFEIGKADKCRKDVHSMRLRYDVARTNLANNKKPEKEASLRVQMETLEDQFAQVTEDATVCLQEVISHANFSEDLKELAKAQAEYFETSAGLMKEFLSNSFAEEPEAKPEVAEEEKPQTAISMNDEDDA
In words: split reporter; BiFC in living diploid yeast cells, scored only at the tip of small buds (ratio of bud width to bud neck width ≤ 1).

Assay [2] concerns the target T2, Rvs161 fused at its C-terminus with the VN or VC part of Venus YFP (S. cerevisiae) (UniProt P25343).
T2 sequence: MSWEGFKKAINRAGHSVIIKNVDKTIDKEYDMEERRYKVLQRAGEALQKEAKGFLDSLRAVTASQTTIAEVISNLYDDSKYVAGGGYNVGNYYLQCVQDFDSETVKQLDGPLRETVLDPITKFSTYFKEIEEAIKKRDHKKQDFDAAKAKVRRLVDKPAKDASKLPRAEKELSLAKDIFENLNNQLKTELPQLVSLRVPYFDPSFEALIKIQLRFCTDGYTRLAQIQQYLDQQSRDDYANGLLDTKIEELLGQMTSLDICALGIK
The assay is described as above.

Assay [3] deals with Rvs167 fused at its C-terminus with the VN or VC part of Venus YFP (S. cerevisiae) (UniProt P39743). In words: split reporter; BiFC with VN and VC parts of Venus YFP in living diploid yeast cells in early exponential growth, 30 °C, whole cells at various stages of the cell cycle (wild-type and rvs161Δ cells).
For assay [4], the target named is T1, Gvp36 fused at its C-terminus with the VN or VC part of Venus YFP (S. cerevisiae). Described as above.
Assay [5] addresses T2, Rvs161 fused at its C-terminus with the VN or VC part of Venus YFP (S. cerevisiae). The description is as above.
The target in another assay is T3, Gyl1-HA (S. cerevisiae) (UniProt Q04322).
T3 sequence: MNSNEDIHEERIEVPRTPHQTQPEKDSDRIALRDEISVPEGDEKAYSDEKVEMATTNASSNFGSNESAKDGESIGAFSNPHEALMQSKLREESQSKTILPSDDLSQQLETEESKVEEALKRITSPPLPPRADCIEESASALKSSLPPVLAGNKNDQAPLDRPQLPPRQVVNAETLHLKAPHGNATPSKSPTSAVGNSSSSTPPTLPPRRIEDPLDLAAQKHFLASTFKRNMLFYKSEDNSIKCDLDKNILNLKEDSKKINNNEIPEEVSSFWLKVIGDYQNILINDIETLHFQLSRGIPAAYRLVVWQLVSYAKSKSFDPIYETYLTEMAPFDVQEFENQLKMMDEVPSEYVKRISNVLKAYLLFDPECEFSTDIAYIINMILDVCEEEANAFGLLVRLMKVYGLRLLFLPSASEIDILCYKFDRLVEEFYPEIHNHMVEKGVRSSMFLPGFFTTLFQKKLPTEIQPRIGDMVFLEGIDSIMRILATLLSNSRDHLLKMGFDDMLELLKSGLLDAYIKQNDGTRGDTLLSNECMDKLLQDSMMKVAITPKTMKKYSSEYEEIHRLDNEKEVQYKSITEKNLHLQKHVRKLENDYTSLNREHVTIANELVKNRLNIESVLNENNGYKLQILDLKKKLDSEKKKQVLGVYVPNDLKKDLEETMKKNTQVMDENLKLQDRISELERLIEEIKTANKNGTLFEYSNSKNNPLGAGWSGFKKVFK
The assay is described as follows: co-IP; total extracts of log-phase yeast cells co-expressing the tagged proteins (rvs167Δrvs161Δ, rvs167Δgvp36Δ, rvs161Δgvp36Δ, rvs167Δ, rvs167Δrvs161Δgvp36Δ or diploid cells); lysis buffer 20 mM Tris-HCl pH 7.5, 100 mM NaCl, 1 mM EDTA, 0.5% Triton X-100; anti-Myc, anti-HA, anti-GFP or anti-VSV antibody and protein G-agarose, 4 °C; washes up to 300 mM NaCl.

A further assay deals with T4, Gyp5-Myc (S. cerevisiae) (UniProt Q12344).
T4 sequence: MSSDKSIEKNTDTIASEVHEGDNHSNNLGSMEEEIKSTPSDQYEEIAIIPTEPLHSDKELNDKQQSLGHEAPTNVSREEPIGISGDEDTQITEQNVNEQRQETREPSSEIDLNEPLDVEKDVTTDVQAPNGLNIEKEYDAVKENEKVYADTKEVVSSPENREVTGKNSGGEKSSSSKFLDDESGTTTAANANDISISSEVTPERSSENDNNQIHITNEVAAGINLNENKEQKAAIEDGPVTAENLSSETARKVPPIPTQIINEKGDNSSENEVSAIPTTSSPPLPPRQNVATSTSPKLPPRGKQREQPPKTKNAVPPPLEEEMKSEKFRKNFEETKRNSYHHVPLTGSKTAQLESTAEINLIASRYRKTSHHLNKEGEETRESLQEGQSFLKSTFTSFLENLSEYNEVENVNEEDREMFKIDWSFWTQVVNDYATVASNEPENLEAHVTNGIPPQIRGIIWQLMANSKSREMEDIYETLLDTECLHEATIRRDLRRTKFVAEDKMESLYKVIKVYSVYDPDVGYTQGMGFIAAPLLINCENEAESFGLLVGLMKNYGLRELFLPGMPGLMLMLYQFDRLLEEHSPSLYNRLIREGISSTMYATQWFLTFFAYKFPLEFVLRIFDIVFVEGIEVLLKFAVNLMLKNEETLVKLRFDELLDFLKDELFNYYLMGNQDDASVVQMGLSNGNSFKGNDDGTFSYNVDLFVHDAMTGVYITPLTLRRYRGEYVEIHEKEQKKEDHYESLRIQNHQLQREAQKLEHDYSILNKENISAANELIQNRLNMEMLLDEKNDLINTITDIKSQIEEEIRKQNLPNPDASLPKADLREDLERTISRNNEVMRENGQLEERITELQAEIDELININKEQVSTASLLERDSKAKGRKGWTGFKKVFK
The description is as above.

The target in assay [6] is T5, Gyp5-VN (S. cerevisiae) (UniProt Q12344).
T5 sequence: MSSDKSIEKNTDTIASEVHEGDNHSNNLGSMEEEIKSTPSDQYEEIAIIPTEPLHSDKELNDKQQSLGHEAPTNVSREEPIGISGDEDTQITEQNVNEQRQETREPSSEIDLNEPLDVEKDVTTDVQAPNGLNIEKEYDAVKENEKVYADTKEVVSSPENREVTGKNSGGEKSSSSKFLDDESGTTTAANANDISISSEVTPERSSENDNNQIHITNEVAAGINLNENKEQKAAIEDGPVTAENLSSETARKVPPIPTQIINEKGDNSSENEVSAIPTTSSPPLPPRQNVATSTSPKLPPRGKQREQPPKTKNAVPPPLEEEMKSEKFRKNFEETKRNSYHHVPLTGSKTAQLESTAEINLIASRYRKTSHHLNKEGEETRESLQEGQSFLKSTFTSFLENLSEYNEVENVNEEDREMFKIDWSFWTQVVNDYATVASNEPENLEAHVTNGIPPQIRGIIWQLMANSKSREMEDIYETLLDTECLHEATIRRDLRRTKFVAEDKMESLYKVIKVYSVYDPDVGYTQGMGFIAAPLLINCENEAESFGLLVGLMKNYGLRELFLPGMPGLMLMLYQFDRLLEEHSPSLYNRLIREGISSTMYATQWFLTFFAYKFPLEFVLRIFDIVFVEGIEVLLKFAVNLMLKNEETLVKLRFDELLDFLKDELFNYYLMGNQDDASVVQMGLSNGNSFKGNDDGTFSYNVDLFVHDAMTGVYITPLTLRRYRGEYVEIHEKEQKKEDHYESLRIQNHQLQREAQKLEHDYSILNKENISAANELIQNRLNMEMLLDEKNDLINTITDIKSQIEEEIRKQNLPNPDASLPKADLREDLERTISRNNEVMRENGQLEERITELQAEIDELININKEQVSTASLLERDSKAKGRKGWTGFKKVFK
The assay is described as follows: split reporter; BiFC with VN and VC parts of Venus YFP in living diploid yeast cells in early exponential growth, 30 °C, whole cells at various stages of the cell cycle (wild-type and rvs161Δ cells).

Assay [7] concerns the target T5, Gyp5-VN (S. cerevisiae). In words: split reporter; BiFC in living diploid yeast cells, scored only at the tip of small buds (ratio of bud width to bud neck width ≤ 1).
In assay [8] the target is T6, VSV-Rvs161 (S. cerevisiae) (UniProt P25343).
T6 sequence: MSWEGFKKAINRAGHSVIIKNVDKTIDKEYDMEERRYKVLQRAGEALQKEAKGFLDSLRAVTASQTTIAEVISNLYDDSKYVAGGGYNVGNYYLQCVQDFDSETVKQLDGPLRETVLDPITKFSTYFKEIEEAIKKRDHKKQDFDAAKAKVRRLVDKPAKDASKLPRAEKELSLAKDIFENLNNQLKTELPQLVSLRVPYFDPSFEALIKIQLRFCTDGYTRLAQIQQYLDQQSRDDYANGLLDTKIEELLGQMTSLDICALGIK
The assay is described as follows: co-IP; total extracts of log-phase yeast cells co-expressing the tagged proteins (rvs167Δrvs161Δ, rvs167Δgvp36Δ, rvs161Δgvp36Δ, rvs167Δ, rvs167Δrvs161Δgvp36Δ or diploid cells); lysis buffer 20 mM Tris-HCl pH 7.5, 100 mM NaCl, 1 mM EDTA, 0.5% Triton X-100; anti-Myc, anti-HA, anti-GFP or anti-VSV antibody and protein G-agarose, 4 °C; washes up to 300 mM NaCl.

These are yes or no findings as the source states them, for the method shown. In cells and extracts the contact can be indirect. Some entries that bind do so weakly or less than the wild type. For some assays here: Tags and fused reporters may be left off the sequences shown.

For “Rvs167 fused at its C-terminus with the VN or VC part of Venus YFP (from UniProt P39743 1-482)”, the binding result in assay [1], in assay [2], in assay [3], in assay [4] and in assay [5] was “binds” each time.
In the case of VSV-Rvs167 (from UniProt P39743 1-482), the binding result with Gyl1-HA (S. cerevisiae) and with Gyp5-Myc (S. cerevisiae) was “binds” throughout.
Turning to “endo-β1,3-glucanase Bgl2 (BiFC fusion, negative control) (from UniProt P15703 24-313)”, the binding entry in assay [3] and in [5] was “no binding” each time.
As for “nucleoporin Nic96 (BiFC fusion, negative control) (from UniProt P34077 1-839)”, the binding entry in assay [3] and in [5] was “no binding” in each case.

B1: Gvp36 fused at its C-terminus with the VN or VC part of Venus YFP (protein, UniProt P40531 1-326)
chain: MSFNAFASSLSKKLQEISTSVSEKTQELPSLAQSTQRMVQERLGQVTDISQLPREYTELEDKVDTIKLIYNHFLGVTAIYENGSYDYPKYINESVNEFSRSVASKLTELTHATSASEAQNILVAPGPIKEPKTLNYALSKVALNSSECLNKMFPTEEQPLASALLQFSDVQAKIAQARIQQDTLIQTKFNKNLRERLSFEIGKADKCRKDVHSMRLRYDVARTNLANNKKPEKEASLRVQMETLEDQFAQVTEDATVCLQEVISHANFSEDLKELAKAQAEYFETSAGLMKEFLSNSFAEEPEAKPEVAEEEKPQTAISMNDEDDA
Regarding B1, the values for the binding entry with Gyp5-VN (S. cerevisiae) [6] and with Gyp5-VN (S. cerevisiae) [7] were “binds” and “binds weakly”, respectively.

B2: Rvs161 fused at its C-terminus with the VN or VC part of Venus YFP (protein, UniProt P25343 1-265)
chain: MSWEGFKKAINRAGHSVIIKNVDKTIDKEYDMEERRYKVLQRAGEALQKEAKGFLDSLRAVTASQTTIAEVISNLYDDSKYVAGGGYNVGNYYLQCVQDFDSETVKQLDGPLRETVLDPITKFSTYFKEIEEAIKKRDHKKQDFDAAKAKVRRLVDKPAKDASKLPRAEKELSLAKDIFENLNNQLKTELPQLVSLRVPYFDPSFEALIKIQLRFCTDGYTRLAQIQQYLDQQSRDDYANGLLDTKIEELLGQMTSLDICALGIK
On to B2, for which the figures for the binding result (in assay [4]; with Gyp5-VN (S. cerevisiae) [6]; in the assay with Gyp5-VN (S. cerevisiae) [7]) were “binds”, “binds” and “binds weakly”, respectively.

B3: Gyp5-Myc (protein, UniProt Q12344 1-894)
chain: MSSDKSIEKNTDTIASEVHEGDNHSNNLGSMEEEIKSTPSDQYEEIAIIPTEPLHSDKELNDKQQSLGHEAPTNVSREEPIGISGDEDTQITEQNVNEQRQETREPSSEIDLNEPLDVEKDVTTDVQAPNGLNIEKEYDAVKENEKVYADTKEVVSSPENREVTGKNSGGEKSSSSKFLDDESGTTTAANANDISISSEVTPERSSENDNNQIHITNEVAAGINLNENKEQKAAIEDGPVTAENLSSETARKVPPIPTQIINEKGDNSSENEVSAIPTTSSPPLPPRQNVATSTSPKLPPRGKQREQPPKTKNAVPPPLEEEMKSEKFRKNFEETKRNSYHHVPLTGSKTAQLESTAEINLIASRYRKTSHHLNKEGEETRESLQEGQSFLKSTFTSFLENLSEYNEVENVNEEDREMFKIDWSFWTQVVNDYATVASNEPENLEAHVTNGIPPQIRGIIWQLMANSKSREMEDIYETLLDTECLHEATIRRDLRRTKFVAEDKMESLYKVIKVYSVYDPDVGYTQGMGFIAAPLLINCENEAESFGLLVGLMKNYGLRELFLPGMPGLMLMLYQFDRLLEEHSPSLYNRLIREGISSTMYATQWFLTFFAYKFPLEFVLRIFDIVFVEGIEVLLKFAVNLMLKNEETLVKLRFDELLDFLKDELFNYYLMGNQDDASVVQMGLSNGNSFKGNDDGTFSYNVDLFVHDAMTGVYITPLTLRRYRGEYVEIHEKEQKKEDHYESLRIQNHQLQREAQKLEHDYSILNKENISAANELIQNRLNMEMLLDEKNDLINTITDIKSQIEEEIRKQNLPNPDASLPKADLREDLERTISRNNEVMRENGQLEERITELQAEIDELININKEQVSTASLLERDSKAKGRKGWTGFKKVFK
Consider B3, for which, in assay [8], the binding result is listed as “binds”.
